Assay results taken from PubChem BioAssay AID504847 (National Center for Advancing Translational Sciences (NCATS), 2011).
Out of some 400,000 compounds screened, about 3,700 (0.93%) were called active. The inconclusive results got no clear call from the source; some entries with a clear call stand among them for comparison. Calls follow the shape of the dose curve; as a rule, active = well fitted inhibition curve with a large enough effect; inconclusive = small, poorly fitted or top-dose-only effect, or another doubt; inactive = no such curve, though single readings can be large or run the other way. A potency beside an inconclusive call is a rough fit, not a confirmed value.

Amino acid sequences for entries named in this document (tags omitted).
UniProt P11473, whole entry, looked up: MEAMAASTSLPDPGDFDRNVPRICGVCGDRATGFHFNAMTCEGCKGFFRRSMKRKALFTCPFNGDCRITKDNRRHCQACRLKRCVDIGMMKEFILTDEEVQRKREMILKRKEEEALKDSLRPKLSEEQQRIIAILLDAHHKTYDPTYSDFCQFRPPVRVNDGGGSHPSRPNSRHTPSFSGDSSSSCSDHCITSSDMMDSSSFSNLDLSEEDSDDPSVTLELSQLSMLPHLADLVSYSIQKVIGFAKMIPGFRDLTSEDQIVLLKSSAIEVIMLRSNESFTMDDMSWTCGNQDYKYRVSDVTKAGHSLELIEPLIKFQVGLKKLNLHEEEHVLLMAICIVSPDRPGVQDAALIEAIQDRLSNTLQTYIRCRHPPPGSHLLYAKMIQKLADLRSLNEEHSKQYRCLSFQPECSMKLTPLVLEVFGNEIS

Target: Vitamin D3 receptor (Homo sapiens) (UniProt P11473)
Assay: Inhibitors of the vitamin D receptor (VDR): qHTS
Conditions: VDR-SRC2-3 peptide fluorescence polarization, 2 h; max response, negative = inhibition: hits give low values
Method in brief: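 Compounds are added to VDR with labelled SRC2-3 coactivator peptide and held 2 h at room temperature. Inhibition of the VDR–peptide interaction is then read as a change in fluorescence polarization.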
% is scaled to controls: 0 for no effect and ±100 for the full control effect; potency is read from the fitted curve at half-maximal effect.

Compound | Potency | max response, negative = inhibition
O=C(CCNC(=O)c1ccc([N+](=O)[O-])cc1)NNC(=O)c1ccncc1 | inconclusive: 89.1 µM [inhibitor, single point] | –
C=Cc1ccc(Cn2c(=O)n(CC3CCC(C(=O)NC(C)C)CC3)c(=O)c3sccc32)cc1 (centres undefined) | – | inactive: -6.17%
O=C(C=Cc1ccccc1O)c1ccccc1O | inconclusive: 56.2 µM [inhibitor, partial curve, poor fit] | –
C/C=C/C1=CC2=CC(=O)C(C)(OC(=O)c3c(C)cc(O)cc3O)C(=O)C2=CO1 (centres undefined) | inconclusive: 56.2 µM [inhibitor, partial curve] | –
COc1cccc(NC(=O)CCN2CCN(CCO)CC2)c1 | – | inactive: 3.16%
CCN1CCN(S(=O)(=O)c2ccc3[nH]c(=O)oc3c2)CC1 | inconclusive: 89.1 µM [inhibitor, partial curve, poor fit] | –
Nc1ccc2oc(Cc3ccc(Cl)cc3)nc2c1 | active: 79.4 µM | –
Cc1ccc(S(=O)(=O)N2CCN(C(=O)c3ccccc3OCc3c(C)noc3C)CC2)cc1 | inconclusive: 89.1 µM [inhibitor, partial curve] | –
CC1CCCC(NC(=O)CSc2nnc(-c3cccnc3)n2N)C1C (centres undefined) | inconclusive: 89.1 µM [inhibitor, single point] | –
FC(F)(F)c1ccccc1-c1nc(NCc2cccnc2)c2ccccc2n1 | inconclusive: 50.1 µM [inhibitor, partial curve] | –
CCn1nc(NS(=O)(=O)c2ccc(NC(C)=O)cc2)c2cc3ccccc3nc21 | inconclusive: 39.8 µM [inhibitor, single point] | –
Oc1c(C(Nc2ccccn2)c2cccnc2)cc(Cl)c2cccnc12 (centres undefined) | inconclusive: 89.1 µM [inhibitor, partial curve, poor fit] | –
O=c1[nH]c2cc3c(cc2cc1CN(CCCO)C(=S)NCc1ccco1)OCO3 | inconclusive: 63.1 µM [inhibitor, partial curve, poor fit] | –
CC(C)NCc1cccc([N+](=O)[O-])c1 | inconclusive: 79.4 µM [inhibitor, single point] | –
COc1ccc(N(C)C(=O)c2cc3c(s2)-c2ccccc2OC3)cc1 | inconclusive: 89.1 µM [inhibitor, single point] | –
O=C(NCCCCl)C1CC(=O)N(CCc2ccc(F)cc2)C1 (centres undefined) | inconclusive: 70.8 µM [inhibitor, partial curve, poor fit] | –
CCOc1ccccc1Nc1nnc(SCC(=O)NC2CC2)s1 | – | inactive: -16.4%
Cc1cc(C)c(C#N)c(SCC(=O)N(C)C2CCCCC2)n1 | – | inactive: -19.3%
COc1ccc(CN2CCN(CC3CC3)CC2CCO)cc1C (centres undefined) | inconclusive: 89.1 µM [inhibitor, single point] | –
COCOc1ccccc1C(=O)/C=C/c1ccccc1 | inconclusive: 35.5 µM [inhibitor, full curve] | –
Fc1ccc(N=c2ssnc2Cl)c(F)c1 | active: 35.5 µM | –
COc1cc(CNCCc2ccccc2)cc(Cl)c1OCc1ccccc1 | – | inactive: -6.97%

Quoted from the entries so far for reference:
Compound | Potency | max response, negative = inhibition
C=Cc1ccc(Cn2c(=O)n(CC3CCC(C(=O)NC(C)C)CC3)c(=O)c3sccc32)cc1 (centres undefined) | – | inactive: -6.17%
O=C(C=Cc1ccccc1O)c1ccccc1O | inconclusive: 56.2 µM [inhibitor, partial curve, poor fit] | –

Further entries:

Compound | Potency | max response, negative = inhibition
CCOc1ccc(/C=C/c2nc3ccccc3n2S(=O)(=O)c2cccc(Cl)c2)cc1 | – | inactive: -0.701%
CCCSc1nnc2n(-c3ccc(OC)cc3)c(=O)c3c4c(sc3n12)COC(C(C)C)C4 (centres undefined) | – | inactive: 0.723%
CC(C)CC1COC(=O)N1 (centres undefined) | – | inactive: -12.1%
O=c1cc2oc3cc(O)c(O)cc3c(-c3ccccc3O)c-2cc1O | inconclusive: 79.4 µM [inhibitor, partial curve, poor fit] | –
COc1ccc(-c2[nH]ncc2CN(CC2CCC(=O)N2)C(C)C)cc1F (centres undefined) | inconclusive: 56.2 µM [inhibitor, partial curve, poor fit] | –
O=S(=O)(Nc1ccc(O)c2ccccc12)c1ccc(F)cc1 | inconclusive: 56.2 µM [inhibitor, partial curve, poor fit] | –
O=C(CC1SC(=O)N(c2ccccc2)C1=O)Nc1ccccc1 (centres undefined) | active: 22.4 µM | –
Cc1cccc(N2CCN(C(=O)c3ccc4c(c3)NC(=O)C(CSCc3cccc(F)c3)N4)CC2C)c1 (centres undefined) | inconclusive: 89.1 µM [inhibitor, single point] | –
CCOC(=O)Cc1csc(NC(=O)COc2ccc3c(c2)CCC3)n1 | inconclusive: 70.8 µM [inhibitor, partial curve] | –
Cc1nc2c(C(=O)NCCc3ccccc3)c[nH]n2c(=O)c1Cc1ccc(F)cc1Cl | inconclusive: 0.631 µM [inhibitor, full curve, poor fit] | –
Cc1ccc(NC(=O)Cn2nnc(-c3nc(-c4ccc(Cl)cc4)no3)c2N)cc1C | – | inactive: 11.8%
CCc1ccccc1NC(=O)Cc1ccc(-n2cccc2)cc1 | inconclusive: 31.6 µM [inhibitor, partial curve] | –
COc1ccccc1C(=O)OCC(=O)NC12CC3CC(CC(C3)C1)C2 | – | inactive: 9.11%
O=C1[C@H](Oc2ccccc2)[C@@H](c2ccccc2)N1c1ccncc1 | inconclusive: 56.2 µM [inhibitor, partial curve, poor fit] | –
O=C(O)c1cc(-c2ccco2)nc2ccccc12 | active: 79.4 µM | –
O=C(CNC(=O)c1ccc(Cl)cc1)OCN1C(=O)c2ccccc2C1=O | inconclusive: 89.1 µM [inhibitor, single point] | –
O=C(NCc1ccco1)C1CCCN1C(=O)Nc1ccc(Cl)cc1 (centres undefined) | inconclusive: 28.2 µM [inhibitor, partial curve, poor fit] | –
CSC1=N/C(=C\c2ccc(Br)o2)C(=O)S1 | – | inactive: 2.43%
Clc1cc2cccnc2c2ncccc12 | inconclusive: 89.1 µM [inhibitor, partial curve, poor fit] | –
O=C(C[n+]1ccc(-c2nnc3n2CCC3)cc1)c1ccc(Cl)c(Cl)c1 | inconclusive: 100 µM [inhibitor, single point] | –
O=C(NCc1ccccc1Cl)C1CCN(S(=O)(=O)c2ccc(N3CCCC3=O)cc2)CC1 | inconclusive: 39.8 µM [inhibitor, single point] | –
CCC(C)NC(=O)COC(=O)Cc1sc(N)nc1-c1ccc(C)cc1 (centres undefined) | – | inactive: 7.08%
